The values below come from patent US20140038203A1, “METHODS FOR DETECTING OR PREDICTING KIDNEY DISEASE” (MUSC FOUNDATION FOR RESEARCH DEVELOPMENT, priority 2012, published 2014).

The chains are these.
B1: Syntenin-1 (protein, UniProt O00560 2-298, looked up)
Syntenin-1: SLYPSLEDLKVDKVIQAQTAFSANPANPAILSEASAPIPHDGNLYPRLYPELSQYMGLSLNEEEIRANVAVVSGAPLQGQLVARPSSINYMVAPVTGNDVGIRRAEIKQGIREVILCKDQDGKIGLRLKSIDNGIFVQLVQANSPASLVGLRFGDQVLQINGENCAGWSSDKAHKVLKQAFGEKITMTIRDRPFERTITMHKDSTGHVGFIFKNGKITSIVKDSSAARNGLLTEHNICEINGQNVIGLKDSQIADILSTSGTVVTITIMPAFIFEHIIKRMAPSIMKSLMDHTIPEV
B2: Bone marrow proteoglycan (protein, UniProt P13727 17-222, looked up)
Bone marrow proteoglycan: LHLRSETSTFETPLGAKTLPEDEETPEQEMEETPCRELEEEEEWGSGSEDASKKDGAVESISVPDMVDKNLTCPEEEDTVKVVGIPGCQTCRYLLVRSLQTFSQAWFTCRRCYRGNLVSIHNFNINYRIQCSVSALNQGQVWIGGRITGSGRCRRFQWVDGSRWNFAYWAAHQPWSRGGHCVALCTRGGHWRRAHCLRRLPFICSY
B3: Lymphocyte antigen 6D (protein, UniProt Q14210 21-98, looked up)
Lymphocyte antigen 6D: LRCHVCTSSSNCKHSVVCPASSRFCKTTNTVEPLRGNLVKKDCAESCTPSYTLQGQVSSGTSSTQCCQEDLCNEKLHN
B4: Glutamyl aminopeptidase (protein, UniProt Q07075 1-957, looked up)
Glutamyl aminopeptidase: MNFAEREGSKRYCIQTKHVAILCAVVVGVGLIVGLAVGLTRSCDSSGDGGPGTAPAPSHLPSSTASPSGPPAQDQDICPASEDESGQWKNFRLPDFVNPVHYDLHVKPLLEEDTYTGTVSISINLSAPTRYLWLHLRETRITRLPELKRPSGDQVQVRRCFEYKKQEYVVVEAEEELTPSSGDGLYLLTMEFAGWLNGSLVGFYRTTYTENGQVKSIVATDHEPTDARKSFPCFDEPNKKATYTISITHPKEYGALSNMPVAKEESVDDKWTRTTFEKSVPMSTYLVCFAVHQFDSVKRISNSGKPLTIYVQPEQKHTAEYAANITKSVFDYFEEYFAMNYSLPKLDKIAIPDFGTGAMENWGLITYRETNLLYDPKESASSNQQRVATVVAHELVHQWFGNIVTMDWWEDLWLNEGFASFFEFLGVNHAETDWQMRDQMLLEDVLPVQEDDSLMSSHPIIVTVTTPDEITSVFDGISYSKGSSILRMLEDWIKPENFQKGCQMYLEKYQFKNAKTSDFWAALEEASRLPVKEVMDTWTRQMGYPVLNVNGVKNITQKRFLLDPRANPSQPPSDLGYTWNIPVKWTEDNITSSVLFNRSEKEGITLNSSNPSGNAFLKINPDHIGFYRVNYEVATWDSIATALSLNHKTFSSADRASLIDDAFALARAQLLDYKVALNLTKYLKREENFLPWQRVISAVTYIISMFEDDKELYPMIEEYFQGQVKPIADSLGWNDAGDHVTKLLRSSVLGFACKMGDREALNNASSLFEQWLNGTVSLPVNLRLLVYRYGMQNSGNEISWNYTLEQYQKTSLAQEKEKLLYGLASVKNVTLLSRYLDLLKDTNLIKTQDVFTVIRYISYNSYGKNMAWNWIQLNWDYLVNRYTLNNRNLGRIVTIAEPFNTELQLWQMESFFAKYPQAGAGEKPREQVLETVKNNIEWLKQHRNTIREWFFNLLESG
B5: Arylsulfatase A (protein, UniProt P15289 19-507, looked up)
Arylsulfatase A: RPPNIVLIFADDLGYGDLGCYGHPSSTTPNLDQLAAGGLRFTDFYVPVSLCTPSRAALLTGRLPVRMGMYPGVLVPSSRGGLPLEEVTVAEVLAARGYLTGMAGKWHLGVGPEGAFLPPHQGFHRFLGIPYSHDQGPCQNLTCFPPATPCDGGCDQGLVPIPLLANLSVEAQPPWLPGLEARYMAFAHDLMADAQRQDRPFFLYYASHHTHYPQFSGQSFAERSGRGPFGDSLMELDAAVGTLMTAIGDLGLLEETLVIFTADNGPETMRMSRGGCSGLLRCGKGTTYEGGVREPALAFWPGHIAPGVTHELASSLDLLPTLAALAGAPLPNVTLDGFDLSPLLLGTGKSPRQSLFFYPSYPDEVRGVFAVRTGKYKAHFFTQGSAHSDTTADPACHASSSLTAHEPPLLYDLSKDPGENYNLLGGVAGATPEVLQALKQLQLLKAQLDAAVTFGPSQVARGEDPALQICCHPGCTPRPACCHCPDPHA
B6: Na(+)/H(+) exchange regulatory cofactor NHE-RF1 (protein, UniProt O14745 2-358, looked up)
Na(+)/H(+) exchange …: SADAAAGAPLPRLCCLEKGPNGYGFHLHGEKGKLGQYIRLVEPGSPAEKAGLLAGDRLVEVNGENVEKETHQQVVSRIRAALNAVRLLVVDPETDEQLQKLGVQVREELLRAQEAPGQAEPPAAAEVQGAGNENEPREADKSHPEQRELRPRLCTMKKGPSGYGFNLHSDKSKPGQFIRSVDPDSPAEASGLRAQDRIVEVNGVCMEGKQHGDVVSAIRAGGDETKLLVVDRETDEFFKKCRVIPSQEHLNGPLPVPFTNGEIQKENSREALAEAALESPRPALVRSASSDTSEELNSQDSPPKQDSTAPSSTSSSDPILDFNISLAMAKERAHQKRSSKRAPQMDWSKKNELFSNL
B7: Extracellular superoxide dismutase [Cu—Zn] (protein, UniProt P08294 19-240, looked up)
Extracellular superoxide …: WTGEDSAEPNSDSAEWIRDMYAKVTEIWQEVMQRRDDDGALHAACQVQPSATLDAAQPRVTGVVLFRQLAPRAKLDAFFALEGFPTEPNSSSRAIHVHQFGDLSQGCESTGPHYNPLAVPHPQHPGDFGNFAVRDGSLWRYRAGLAASLAGPHSIVGRAVVVHAGEDDLGRGGNQASVENGNAGRRLACCVVGVCGPGLWERQAREHSERKKRRRESECKAA
B8: Folate receptor alpha (protein, UniProt P15328 25-234, looked up)
Folate receptor alpha: RIAWARTELLNVCMNAKHHKEKPGPEDKLHEQCRPWRKNACCSTNTSQEAHKDVSYLYRFNWNHCGEMAPACKRHFIQDTCLYECSPNLGPWIQQVDQSWRKERVLNVPLCKEDCEQWWEDCRTSYTCKSNWHKGWNWTSGFNKCAVGAACQPFHFYFPTPTVLCNEIWTHSYKVSNYSRGSGRCIQMWFDPAQGNPNEEVARFYAAAMS
B9: Heme-binding protein 2 (protein, UniProt Q9Y5Z4 2-205, looked up)
Heme-binding protein 2: AEPLQPDPGAAEDAAAQAVETPGWKAPEDAGPQPGSYEIRHYGPAKWVSTSVESMDWDSAIQTGFTKLNSYIQGKNEKEMKIKMTAPVTSYVEPGSGPFSESTITISLYIPSEQQFDPPRPLESDVFIEDRAEMTVFVRSFDGFSSAQKNQEQLLTLASILREDGKVFDEKVYYTAGYNSPVKLLNRNNEVWLIQKNEPTKENE
B10: Myoglobin (protein, UniProt P02144 2-154, looked up)
Myoglobin: GLSDGEWQLVLNVWGKVEADIPGHGQEVLIRLFKGHPETLEKFDKFKHLKSEDEMKASEDLKKHGATVLTALGGILKKKGHHEAEIKPLAQSHATKHKIPVKYLEFISECIIQVLQSKHPGDFGADAQGAMNKALELFRKDMASNYKELGFQG

One data set in a line: RRT study: LC-MS/MS urinary proteomics, AKI after cardiac surgery, RRT vs No RRT. More on the design: species or system human. As to conditions: direction of differential abundance, patients who did vs did not require RRT/dialysis.
For B1, the “Up or Down” value is reported as “Down”.

Turning to B2, the “Up or Down” value was “Down”. Regarding B3, the “Up or Down” value is reported as “Down”.

B4: the “Up or Down” value is given as “Down”. Turning to B5, the “Up or Down” value is listed as “Down”. Turning to B6, the “Up or Down” value is reported as “Down”. On the same count and under the same terms, then B7, with “Down”; and B8, with “Down”.

The data set is the same for the next values; noted with them: direction of urinary abundance, patients who did vs did not require RRT/dialysis.
In the case of B9, the “Up or Down” value is “Up”. The same measure, in the same setting: to B10 belongs “Up”.

The data set is the same for the next values; noted with them: patients who did vs did not require RRT/dialysis.
On to B1, for which the “Mean Fold Change” value is given as 1.059. For the molecule B2, the “Mean Fold Change” value worked out at 1.414. Turning to B3, the “Mean Fold Change” value is 1.289. The same measure, in the same setting: to B5 belongs 1.44; to B6, 2.56.

B7: the “Mean Fold Change” value came to 21.6. B8: the “Mean Fold Change” value was found to be 2.118.

Staying with this data set, now noted: patients who did vs did not require RRT/dialysis; read with the Up or Down column.
Take B10: the “Mean Fold Change” value is 114.3198.
